Measured values reported in publication PMC7862700.
Only a part is listed here, and it is no random draw. For some of these results: At the low end of the ranking the order means little. The list shows a part of the results. For some of these results: Construct or isoform of the protein are uncertain.

By UniProt entry, the sequences of proteins in these tests, tags left out. Where a name states a change or a piece, a line headed by the entry shows the natural chain unless it says otherwise.
UniProt Q00613: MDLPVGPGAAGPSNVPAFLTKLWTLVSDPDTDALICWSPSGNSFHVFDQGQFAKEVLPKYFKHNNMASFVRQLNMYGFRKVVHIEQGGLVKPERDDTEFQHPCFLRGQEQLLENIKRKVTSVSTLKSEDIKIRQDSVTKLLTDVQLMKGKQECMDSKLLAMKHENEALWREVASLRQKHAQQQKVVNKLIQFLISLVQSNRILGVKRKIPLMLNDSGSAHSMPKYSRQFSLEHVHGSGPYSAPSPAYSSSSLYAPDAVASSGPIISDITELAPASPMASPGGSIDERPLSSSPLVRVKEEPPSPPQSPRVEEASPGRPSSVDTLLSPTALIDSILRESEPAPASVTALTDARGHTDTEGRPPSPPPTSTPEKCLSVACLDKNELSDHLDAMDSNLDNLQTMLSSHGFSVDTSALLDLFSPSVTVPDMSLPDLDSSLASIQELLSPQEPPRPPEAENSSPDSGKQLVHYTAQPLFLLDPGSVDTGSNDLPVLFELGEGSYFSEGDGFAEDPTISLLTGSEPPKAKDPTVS

target: HSF1 (UniProt Q00613); assay: DAPPL (digital affinity profiling via proximity ligation, sequencing); settings: 10 mM Tris-HCl pH 7.5, 50 mM NaCl, 1 mM DTT, 4% glycerol, room temperature, 30 min; GST-TFs on glutathione beads, 16-mer random dsDNA library, 0.1% …; high values mean tight binding; double strand, one strand shown; scale: fold enrichment (6-mer frequency, TF over GST control)

| Sequence | binding signal |
| --- | --- |
| TCAGGT | 0.821 |
| GTGGGA | 0.507 |
| GAAGAG | 0.735 |
| AAGGAG | 0.318 |
| GTGTAG | 0.58 |
| GGCGCA | 0.47 |
| GTAGCC | 0.747 |
| TGACAG | 0.801 |
| GCACCG | 0.556 |
| GCGCGA | 0.804 |
| GGTAGT | 0.528 |
| GACAAA | 0.884 |
| GCCCAG | 0.794 |
| CAGTAG | 0.616 |
| GTGATC | 0.758 |
| TACAGT | 0.801 |
| GCGCTA | 0.922 |
| GGGAAT | 1.09 |
| AGTCTA | 0.891 |

| Sequence | binding signal |
| --- | --- |
| CGTTGA | 0.735 |
| GGGTCA | 0.532 |
| TGAGGC | 0.426 |
| CCAGGT | 0.669 |
| GTAGGT | 0.68 |
| CGTGAG | 0.137 |
| ATCGGA | 0.453 |
| AGGGTA | 0.848 |
| AGGTAC | 0.785 |
| AGATTG | 1.01 |
| TTGTCG | 0.803 |
| AGCGCA | 0.818 |
| CGGCCG | 0.647 |
| GGGTGA | 0.513 |
| GGTAGA | 0.725 |
| AGAGGC | 0.648 |
| GGTAAG | 0.782 |
| CATGTC | 0.55 |
| ATGTGA | 0.56 |

target: T1, ELF2 (UniProt Q15723); assay: as above; settings: 10 mM Tris-HCl pH 7.5, 50 mM NaCl, 1 mM DTT, 4% glycerol, room temperature, 30 min; GST-TFs on glutathione beads, 16-mer random dsDNA library, 0.1% …; high values mean tight binding; double strand, one strand shown; scale: fold enrichment (6-mer frequency, TF over GST control)
T1 sequence: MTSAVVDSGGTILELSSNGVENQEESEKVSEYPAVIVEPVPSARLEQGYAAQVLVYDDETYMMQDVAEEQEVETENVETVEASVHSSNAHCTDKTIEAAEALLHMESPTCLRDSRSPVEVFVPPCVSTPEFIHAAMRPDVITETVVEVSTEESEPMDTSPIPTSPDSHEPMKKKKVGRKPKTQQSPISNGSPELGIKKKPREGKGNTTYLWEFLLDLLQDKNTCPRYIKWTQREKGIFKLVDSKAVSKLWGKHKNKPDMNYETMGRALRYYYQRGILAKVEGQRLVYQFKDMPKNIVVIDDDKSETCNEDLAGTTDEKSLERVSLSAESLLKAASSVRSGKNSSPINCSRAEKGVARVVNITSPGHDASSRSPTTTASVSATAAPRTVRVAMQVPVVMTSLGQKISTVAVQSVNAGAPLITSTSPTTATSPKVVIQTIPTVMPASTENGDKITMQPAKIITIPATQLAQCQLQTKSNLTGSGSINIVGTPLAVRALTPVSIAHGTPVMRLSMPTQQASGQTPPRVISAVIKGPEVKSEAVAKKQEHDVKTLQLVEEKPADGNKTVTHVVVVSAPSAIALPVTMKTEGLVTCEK

| Sequence | binding signal |
| --- | --- |
| TCAGGT | 0.83 |
| GTGGGA | 0.571 |
| GAAGAG | 1.06 |
| AAGGAG | 0.343 |
| GTGTAG | 0.627 |
| GGCGCA | 0.579 |
| GTAGCC | 0.909 |
| TGACAG | 0.912 |
| GCACCG | 0.729 |
| GCGCGA | 0.696 |
| GGTAGT | 0.815 |
| GACAAA | 0.947 |
| GCCCAG | 0.72 |
| CAGTAG | 0.593 |
| GTGATC | 0.786 |
| TACAGT | 0.824 |
| GCGCTA | 0.909 |
| GGGAAT | 0.818 |
| AGTCTA | 0.72 |

| Sequence | binding signal |
| --- | --- |
| CGTTGA | 0.757 |
| GGGTCA | 0.669 |
| TGAGGC | 0.452 |
| CCAGGT | 0.712 |
| GTAGGT | 0.78 |
| CGTGAG | 0.123 |
| ATCGGA | 0.438 |
| AGGGTA | 0.835 |
| AGGTAC | 0.929 |
| AGATTG | 0.776 |
| TTGTCG | 0.83 |
| AGCGCA | 0.926 |
| CGGCCG | 0.811 |
| GGGTGA | 0.589 |
| GGTAGA | 0.621 |
| AGAGGC | 0.7 |
| GGTAAG | 0.751 |
| CATGTC | 0.791 |
| ATGTGA | 0.637 |
